Numbering of substitutions follows the chain as printed. Results are given in words; binding and its absence hold for the method and conditions named. Some results given as binding are weak or reduced against the parent protein; the word gives no strength. Where a sequence is shown, tags or fusion partners need not be part of it.
Experiments:
[1] = molecular target: T1, mouse DNA ligase 4 (Lig4) wild type, C-terminal poly His tag (mouse) (UniProt Q8BTF7); experiment: co-purification (Ni-NTA, sepharose Q); Lig4 with a C-terminal poly His tag and untagged XRCC4 co-expressed in E. coli Rosetta 2 (pLysS), induced at 15°C for 16 h; complex purified by Ni-NTA followed by sepharose Q chromatography
T1 sequence: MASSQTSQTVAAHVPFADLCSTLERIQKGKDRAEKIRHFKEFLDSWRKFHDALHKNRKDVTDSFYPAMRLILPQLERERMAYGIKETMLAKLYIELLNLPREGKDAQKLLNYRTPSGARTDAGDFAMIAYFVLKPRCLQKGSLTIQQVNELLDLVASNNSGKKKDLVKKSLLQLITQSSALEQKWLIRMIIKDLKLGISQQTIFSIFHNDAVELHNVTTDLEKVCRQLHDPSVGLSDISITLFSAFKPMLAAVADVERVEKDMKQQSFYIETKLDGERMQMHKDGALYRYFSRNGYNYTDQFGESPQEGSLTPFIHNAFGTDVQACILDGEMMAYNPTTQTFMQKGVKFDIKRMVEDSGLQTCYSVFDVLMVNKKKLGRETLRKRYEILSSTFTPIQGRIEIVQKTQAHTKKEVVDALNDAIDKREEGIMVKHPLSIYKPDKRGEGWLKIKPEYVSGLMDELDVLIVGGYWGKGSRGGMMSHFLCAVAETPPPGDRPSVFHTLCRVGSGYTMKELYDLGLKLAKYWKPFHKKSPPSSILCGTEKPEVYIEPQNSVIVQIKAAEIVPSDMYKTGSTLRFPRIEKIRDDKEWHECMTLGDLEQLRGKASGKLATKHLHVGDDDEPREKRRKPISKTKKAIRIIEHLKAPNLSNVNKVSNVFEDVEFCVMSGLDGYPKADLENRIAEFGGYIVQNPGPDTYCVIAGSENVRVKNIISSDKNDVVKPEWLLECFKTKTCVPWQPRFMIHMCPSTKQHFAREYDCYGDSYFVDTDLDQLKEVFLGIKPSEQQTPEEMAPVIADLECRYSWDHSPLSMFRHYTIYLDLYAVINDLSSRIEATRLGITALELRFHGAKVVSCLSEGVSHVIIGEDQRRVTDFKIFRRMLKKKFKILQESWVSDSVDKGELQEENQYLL

Chains of the proteins cited; added tags and fusions are not shown.
UniProt Q924T3: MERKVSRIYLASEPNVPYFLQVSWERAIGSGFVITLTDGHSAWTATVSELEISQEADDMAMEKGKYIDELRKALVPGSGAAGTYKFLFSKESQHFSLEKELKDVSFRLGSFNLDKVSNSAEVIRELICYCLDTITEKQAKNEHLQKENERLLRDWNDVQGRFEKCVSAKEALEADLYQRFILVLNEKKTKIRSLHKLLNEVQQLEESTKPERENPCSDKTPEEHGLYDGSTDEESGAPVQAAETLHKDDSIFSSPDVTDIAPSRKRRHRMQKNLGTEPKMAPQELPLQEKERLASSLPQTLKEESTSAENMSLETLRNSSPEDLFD

[2] = molecular target: T2, mouse DNA ligase 4 (Lig4) K273S, C-terminal poly His tag (mouse) (UniProt Q8BTF7); experiment: as above
T2 sequence: T1 sequence with K273S

binding [1]: binds | binding [2]: binds
Substance: mouse XRCC4, untagged (from UniProt Q924T3 1-326)

— PMC11754673
